The supplement of paper PMC12823440, “Inhibitors supercharge kinase turnover through native proteolytic circuits” (Nature, 2025)
Structures can show the parent of a compound that is named as a salt. The list shows a part of the results. The calls rarely recur for the same compound in another form.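 Kinases, fused to nanoluciferase, were expressed in K562 cells; luminescence was measured every 4 h from 2 to 18 h as percent of control (DMSO = 100%, positive control = 0%). A time point is decreased if signal falls significantly (2 sigma). Hits were called by the authors by a rule that is not shown; the count of time points alone does not decide it.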

Protein sequences, listed by entry. Tags and fused reporters are not part of them. Lines headed by an entry give the natural chain unless they say otherwise; changes in a name come on top.
UniProt P29317, whole entry: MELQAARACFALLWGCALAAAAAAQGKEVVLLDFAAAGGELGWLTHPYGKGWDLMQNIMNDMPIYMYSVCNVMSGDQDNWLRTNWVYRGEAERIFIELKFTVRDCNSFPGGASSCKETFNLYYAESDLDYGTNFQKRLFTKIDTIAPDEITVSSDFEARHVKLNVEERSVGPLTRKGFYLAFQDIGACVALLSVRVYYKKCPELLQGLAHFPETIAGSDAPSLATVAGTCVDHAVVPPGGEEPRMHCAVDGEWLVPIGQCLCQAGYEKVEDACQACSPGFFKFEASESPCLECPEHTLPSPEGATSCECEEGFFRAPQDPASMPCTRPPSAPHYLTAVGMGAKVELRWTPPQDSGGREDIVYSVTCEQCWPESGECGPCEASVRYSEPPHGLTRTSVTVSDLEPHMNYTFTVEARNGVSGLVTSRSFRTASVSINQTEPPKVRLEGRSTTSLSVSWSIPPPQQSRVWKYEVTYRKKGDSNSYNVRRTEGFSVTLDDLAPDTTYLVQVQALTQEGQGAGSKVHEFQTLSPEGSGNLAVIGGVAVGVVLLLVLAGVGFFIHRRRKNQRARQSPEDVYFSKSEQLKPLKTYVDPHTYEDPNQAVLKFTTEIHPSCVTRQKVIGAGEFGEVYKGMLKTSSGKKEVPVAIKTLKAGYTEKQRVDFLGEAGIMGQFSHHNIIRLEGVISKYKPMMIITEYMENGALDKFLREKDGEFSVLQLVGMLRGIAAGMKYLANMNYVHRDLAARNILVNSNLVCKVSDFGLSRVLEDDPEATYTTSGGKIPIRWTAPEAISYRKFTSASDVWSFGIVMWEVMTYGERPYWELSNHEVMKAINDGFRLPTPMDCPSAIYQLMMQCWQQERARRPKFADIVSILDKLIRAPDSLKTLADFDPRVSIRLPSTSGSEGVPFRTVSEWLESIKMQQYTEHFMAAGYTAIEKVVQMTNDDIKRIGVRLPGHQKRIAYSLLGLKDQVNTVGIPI
UniProt P21860, whole entry: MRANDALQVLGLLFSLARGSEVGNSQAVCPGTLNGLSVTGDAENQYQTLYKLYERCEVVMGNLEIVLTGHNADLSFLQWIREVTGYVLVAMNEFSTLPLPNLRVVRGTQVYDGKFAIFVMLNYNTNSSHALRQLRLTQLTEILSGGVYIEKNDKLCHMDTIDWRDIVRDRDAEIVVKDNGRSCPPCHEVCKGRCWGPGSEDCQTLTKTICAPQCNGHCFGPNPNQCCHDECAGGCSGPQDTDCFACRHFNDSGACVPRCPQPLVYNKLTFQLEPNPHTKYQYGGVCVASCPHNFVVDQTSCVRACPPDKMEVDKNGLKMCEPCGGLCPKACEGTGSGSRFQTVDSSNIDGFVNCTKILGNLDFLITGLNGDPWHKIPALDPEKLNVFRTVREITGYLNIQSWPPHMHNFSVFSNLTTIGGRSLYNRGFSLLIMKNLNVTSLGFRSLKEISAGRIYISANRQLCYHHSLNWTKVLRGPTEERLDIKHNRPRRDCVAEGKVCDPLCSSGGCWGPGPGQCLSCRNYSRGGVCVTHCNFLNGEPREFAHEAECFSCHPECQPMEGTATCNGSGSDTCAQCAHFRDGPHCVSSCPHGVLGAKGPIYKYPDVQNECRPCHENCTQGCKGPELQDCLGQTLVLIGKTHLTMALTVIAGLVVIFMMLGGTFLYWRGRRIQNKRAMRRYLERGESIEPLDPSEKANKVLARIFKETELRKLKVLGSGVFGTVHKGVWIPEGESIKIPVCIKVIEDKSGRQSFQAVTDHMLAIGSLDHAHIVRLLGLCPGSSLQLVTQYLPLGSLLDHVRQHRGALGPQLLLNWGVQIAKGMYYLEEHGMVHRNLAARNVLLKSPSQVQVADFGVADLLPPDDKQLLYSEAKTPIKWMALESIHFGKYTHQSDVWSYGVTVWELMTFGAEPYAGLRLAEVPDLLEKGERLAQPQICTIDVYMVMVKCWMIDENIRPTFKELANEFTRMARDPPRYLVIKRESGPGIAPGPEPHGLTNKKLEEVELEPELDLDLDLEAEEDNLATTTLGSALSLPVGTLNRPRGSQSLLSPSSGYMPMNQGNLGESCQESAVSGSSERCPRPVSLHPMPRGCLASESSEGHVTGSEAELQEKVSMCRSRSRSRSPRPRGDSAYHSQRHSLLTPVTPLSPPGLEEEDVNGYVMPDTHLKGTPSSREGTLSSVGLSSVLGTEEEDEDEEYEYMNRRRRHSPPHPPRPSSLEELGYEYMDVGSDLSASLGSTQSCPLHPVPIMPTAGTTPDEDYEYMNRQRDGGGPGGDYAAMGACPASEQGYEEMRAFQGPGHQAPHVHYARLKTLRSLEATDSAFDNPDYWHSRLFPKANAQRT
UniProt P22607, whole entry, looked up: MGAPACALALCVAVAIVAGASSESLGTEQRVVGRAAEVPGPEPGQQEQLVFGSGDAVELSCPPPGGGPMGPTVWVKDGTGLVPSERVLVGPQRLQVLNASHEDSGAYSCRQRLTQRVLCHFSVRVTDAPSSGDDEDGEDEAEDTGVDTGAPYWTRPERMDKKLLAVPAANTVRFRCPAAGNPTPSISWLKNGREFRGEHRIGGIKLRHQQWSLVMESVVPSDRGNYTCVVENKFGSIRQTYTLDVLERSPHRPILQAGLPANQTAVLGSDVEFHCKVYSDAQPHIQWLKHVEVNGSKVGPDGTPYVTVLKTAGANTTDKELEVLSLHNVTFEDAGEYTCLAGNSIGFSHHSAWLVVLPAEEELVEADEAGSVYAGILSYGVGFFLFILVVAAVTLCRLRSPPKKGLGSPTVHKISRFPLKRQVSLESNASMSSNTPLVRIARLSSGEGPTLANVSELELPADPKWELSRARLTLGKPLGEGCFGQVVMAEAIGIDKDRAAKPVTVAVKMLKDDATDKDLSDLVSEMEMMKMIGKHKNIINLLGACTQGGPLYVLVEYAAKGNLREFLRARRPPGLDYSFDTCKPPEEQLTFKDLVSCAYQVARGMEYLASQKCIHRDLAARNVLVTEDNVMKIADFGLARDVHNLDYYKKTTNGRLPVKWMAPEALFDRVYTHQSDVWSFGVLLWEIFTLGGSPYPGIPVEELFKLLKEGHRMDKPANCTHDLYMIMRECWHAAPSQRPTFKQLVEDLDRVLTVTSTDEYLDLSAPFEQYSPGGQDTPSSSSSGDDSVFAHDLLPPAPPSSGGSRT
UniProt P06241, whole entry, looked up: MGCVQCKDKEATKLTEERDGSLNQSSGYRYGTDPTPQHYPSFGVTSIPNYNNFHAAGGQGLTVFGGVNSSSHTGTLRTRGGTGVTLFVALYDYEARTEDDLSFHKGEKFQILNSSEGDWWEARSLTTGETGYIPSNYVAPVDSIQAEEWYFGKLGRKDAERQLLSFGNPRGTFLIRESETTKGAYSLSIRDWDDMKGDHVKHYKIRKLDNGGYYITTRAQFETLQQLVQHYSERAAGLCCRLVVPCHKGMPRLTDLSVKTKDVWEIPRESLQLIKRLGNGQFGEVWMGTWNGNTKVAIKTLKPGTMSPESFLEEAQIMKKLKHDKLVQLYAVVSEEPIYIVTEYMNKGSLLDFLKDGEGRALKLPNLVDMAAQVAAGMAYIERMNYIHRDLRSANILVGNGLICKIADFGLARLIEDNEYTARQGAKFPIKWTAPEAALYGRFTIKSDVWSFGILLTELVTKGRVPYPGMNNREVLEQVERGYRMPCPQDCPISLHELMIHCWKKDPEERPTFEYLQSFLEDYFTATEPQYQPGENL
UniProt P49840: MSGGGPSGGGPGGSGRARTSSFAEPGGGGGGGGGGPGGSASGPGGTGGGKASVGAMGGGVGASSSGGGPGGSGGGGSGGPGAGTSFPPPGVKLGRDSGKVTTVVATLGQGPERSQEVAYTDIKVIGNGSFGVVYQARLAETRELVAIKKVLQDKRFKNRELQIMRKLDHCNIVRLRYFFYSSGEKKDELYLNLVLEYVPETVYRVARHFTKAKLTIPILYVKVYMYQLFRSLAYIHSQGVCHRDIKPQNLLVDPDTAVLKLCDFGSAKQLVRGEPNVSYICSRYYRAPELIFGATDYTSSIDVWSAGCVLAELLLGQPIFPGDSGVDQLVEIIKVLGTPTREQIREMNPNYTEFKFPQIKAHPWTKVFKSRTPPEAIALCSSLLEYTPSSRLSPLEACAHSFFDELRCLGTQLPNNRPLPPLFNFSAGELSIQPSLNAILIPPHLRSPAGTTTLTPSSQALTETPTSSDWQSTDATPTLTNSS
UniProt Q9Y616: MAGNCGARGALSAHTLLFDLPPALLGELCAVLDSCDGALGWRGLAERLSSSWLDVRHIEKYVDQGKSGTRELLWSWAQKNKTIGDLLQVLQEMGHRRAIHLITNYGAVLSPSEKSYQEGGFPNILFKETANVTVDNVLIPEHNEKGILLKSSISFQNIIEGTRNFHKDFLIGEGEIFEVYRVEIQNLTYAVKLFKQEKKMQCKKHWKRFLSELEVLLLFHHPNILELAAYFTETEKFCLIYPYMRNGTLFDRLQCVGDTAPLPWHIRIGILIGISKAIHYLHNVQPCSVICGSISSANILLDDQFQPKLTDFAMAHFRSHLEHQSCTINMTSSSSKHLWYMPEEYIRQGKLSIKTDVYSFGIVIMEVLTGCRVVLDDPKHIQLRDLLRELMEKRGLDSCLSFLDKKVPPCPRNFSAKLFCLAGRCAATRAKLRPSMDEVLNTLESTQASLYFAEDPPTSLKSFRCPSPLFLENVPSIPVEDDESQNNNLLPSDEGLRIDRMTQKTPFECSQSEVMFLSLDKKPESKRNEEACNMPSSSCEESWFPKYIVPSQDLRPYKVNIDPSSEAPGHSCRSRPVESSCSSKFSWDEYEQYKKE
UniProt P23458: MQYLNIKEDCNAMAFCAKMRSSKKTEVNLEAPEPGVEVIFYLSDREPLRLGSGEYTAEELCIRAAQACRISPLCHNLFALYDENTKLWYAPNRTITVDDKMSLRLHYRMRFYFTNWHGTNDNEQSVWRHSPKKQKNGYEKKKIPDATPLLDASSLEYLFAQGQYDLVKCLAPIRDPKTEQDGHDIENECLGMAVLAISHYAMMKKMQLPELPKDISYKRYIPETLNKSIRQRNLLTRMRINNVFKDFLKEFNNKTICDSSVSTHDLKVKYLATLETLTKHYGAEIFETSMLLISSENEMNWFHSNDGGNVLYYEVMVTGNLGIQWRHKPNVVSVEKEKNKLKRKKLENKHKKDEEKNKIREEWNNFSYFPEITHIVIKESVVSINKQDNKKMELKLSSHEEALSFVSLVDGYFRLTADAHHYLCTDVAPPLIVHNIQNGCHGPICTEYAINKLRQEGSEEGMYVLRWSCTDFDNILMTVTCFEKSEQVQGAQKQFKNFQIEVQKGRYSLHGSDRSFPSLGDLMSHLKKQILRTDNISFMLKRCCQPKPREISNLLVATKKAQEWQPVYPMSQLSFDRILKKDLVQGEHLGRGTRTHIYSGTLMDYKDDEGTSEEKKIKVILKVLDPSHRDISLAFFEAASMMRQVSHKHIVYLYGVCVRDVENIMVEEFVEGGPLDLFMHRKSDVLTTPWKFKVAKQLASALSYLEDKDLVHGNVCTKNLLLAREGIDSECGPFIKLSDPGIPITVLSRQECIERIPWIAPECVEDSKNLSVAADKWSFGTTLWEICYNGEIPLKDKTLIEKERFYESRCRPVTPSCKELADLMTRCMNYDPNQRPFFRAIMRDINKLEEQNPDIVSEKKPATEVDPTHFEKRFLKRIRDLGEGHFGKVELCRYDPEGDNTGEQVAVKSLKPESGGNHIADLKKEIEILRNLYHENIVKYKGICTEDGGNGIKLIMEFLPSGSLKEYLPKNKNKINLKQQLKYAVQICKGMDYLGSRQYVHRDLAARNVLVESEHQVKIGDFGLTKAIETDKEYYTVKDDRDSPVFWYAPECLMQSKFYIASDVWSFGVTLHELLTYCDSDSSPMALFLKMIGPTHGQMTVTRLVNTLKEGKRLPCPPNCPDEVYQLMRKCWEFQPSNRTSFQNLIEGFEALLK
UniProt P53667: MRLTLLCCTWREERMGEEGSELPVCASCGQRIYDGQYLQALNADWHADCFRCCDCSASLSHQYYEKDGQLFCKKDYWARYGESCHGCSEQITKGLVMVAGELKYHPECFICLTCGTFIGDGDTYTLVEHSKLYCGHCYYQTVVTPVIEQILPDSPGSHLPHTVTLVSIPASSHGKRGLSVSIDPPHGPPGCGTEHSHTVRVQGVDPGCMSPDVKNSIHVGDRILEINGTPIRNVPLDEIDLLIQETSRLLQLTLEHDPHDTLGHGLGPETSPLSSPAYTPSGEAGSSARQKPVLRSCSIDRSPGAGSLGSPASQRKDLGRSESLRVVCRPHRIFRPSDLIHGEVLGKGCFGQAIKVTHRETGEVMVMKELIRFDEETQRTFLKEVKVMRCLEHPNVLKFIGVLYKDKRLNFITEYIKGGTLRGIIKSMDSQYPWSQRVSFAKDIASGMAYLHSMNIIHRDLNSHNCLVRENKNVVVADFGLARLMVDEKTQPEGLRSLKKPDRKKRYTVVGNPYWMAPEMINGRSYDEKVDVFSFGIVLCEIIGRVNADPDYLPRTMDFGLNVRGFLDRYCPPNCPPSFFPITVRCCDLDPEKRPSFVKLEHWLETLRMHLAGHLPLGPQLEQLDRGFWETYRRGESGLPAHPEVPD

Assays:
Experiment in all cases: number of time points (of 5) at which kinase-Nluc abundance scored as decreased, DMSO-normalised (count); higher = more persistent destabilization
Settings in all cases: K562; 2-18 h
EGFR_L861Q = EGFR_L861Q (UniProt P00533)
EGFR_T790M = EGFR_T790M (UniProt P00533)
EPHA2 = EPHA2 (UniProt P29317)
ERBB3 = ERBB3 (UniProt P21860)
[1] = target: ERBB4_R711C (clone: ERBB4_mut) (UniProt Q15303)
ERN1 = ERN1 (UniProt O75460)
FGFR1 = FGFR1 (UniProt P11362)
FGFR2 = FGFR2 (UniProt P21802)
FGFR3 = FGFR3 (UniProt P22607)
FGR = FGR (UniProt P09769)
FLT3 = FLT3 (UniProt P36888)
FYN = FYN (UniProt P06241)
GSK3A = GSK3A (UniProt P49840)
HER2 = HER2 (UniProt P04626)
INSRR = INSRR (UniProt P14616)
IRAK3 = IRAK3 (UniProt Q9Y616)
JAK1 = JAK1 (UniProt P23458)
LCK = LCK (UniProt P06239)
LIMK1 = LIMK1 (UniProt P53667)
LIMK2 = LIMK2 (UniProt P53671)

SMILES | number of time points (EGFR_L861Q) | number of time points (EGFR_T790M) | number of time points (EPHA2) | number of time points (ERBB3) | number of time points [1] | number of time points (ERN1) | number of time points (FGFR1) | number of time points (FGFR2) | number of time points (FGFR3) | number of time points (FGR) | number of time points (FLT3) | number of time points (FYN) | number of time points (GSK3A) | number of time points (HER2) | number of time points (INSRR) | number of time points (IRAK3) | number of time points (JAK1) | number of time points (LCK) | number of time points (LIMK1) | number of time points (LIMK2)
Cc1ccc(-n2nc(C(C)(C)C)cc2NC(=O)Nc2ccc(OCCN3CCOCC3)cc2)cc1 (10 µM) | 0 | 0 | 0 | 0 | 0 | 0 | 0 | 0 | 0 | 0 | 0 | 0 | 0 | 0 | 0 | 0 | 0 | 0 | 0 | 0
Cc1cc(C(=O)NOCCO)c(Nc2ccc(I)cc2F)n(C)c1=O (10 µM) | 2 | 0 | 0 | 2 | 1 | 0 | 0 | 2 | 0 | 0 | 0 | 0 | 0 | 0 | 1 | 0 | 0 | 0 | 0 | 0
Cc1c(Cl)cccc1S(=O)(=O)Nc1nc(NCCc2ccccc2)nc2c1CN(Cc1ccccc1)CC2 (2.5 µM) | 0 | 0 | 0 | 0 | 0 | 0 | 0 | 0 | 0 | 0 | 0 | 0 | 0 | 0 | 0 | 0 | 0 | 0 | 0 | 0
CCCCCc1ccc(/C=C/[C@H](O)[C@@H](CO)NC)cc1 [SK1-I (hydrochloride)] (10 µM) | 0 | 0 | 0 | 0 | 0 | 0 | 0 | 0 | 0 | 0 | 0 | 0 | 0 | 0 | 0 | 0 | 0 | 0 | 0 | 0
c1nn(C2CCOCC2)cc1Nc1ncc2nnn(-c3ccc4cn[nH]c4c3)c2n1 (10 µM) | 0 | 0 | 0 | 0 | 0 | 0 | 0 | 0 | 0 | 0 | 0 | 0 | 0 | 0 | 0 | 0 | 0 | 0 | 0 | 0
